For one molecule, binding results are on record in publication PMC6797205.

For the assay, the target named is Arabidopsis thaliana ARF5 PB1 domain (AtARF5-PB1) (Arabidopsis thaliana) (UniProt P93024). Description: SEC-MALS; SEC-MALLS on Superdex-S200 increase, 25 C, 0.5 mL/min; Tris-HCl 20 mM pH 8, TCEP 1 mM (untagged CaARF-PB1 and AtARF5); CaARF-PB1 at 5, 2.5, 1.25 and 0.625 mg/mL; both purified. (In general: SEC sorts molecules by how far they enter the pores of the column.)

No constants are given. Whether binding was seen depends on the method and setting. Some entries that bind do so weakly or less than the wild type.

B1: Arabidopsis thaliana ARF5 PB1 domain (AtARF5-PB1) (domain or fragment, UniProt P93024 779-902)
chain: SKGSSWQKIATPRVRTYTKVQKTGSVGRSIDVTSFKDYEELKSAIECMFGLEGLLTHPQSSGWKLVYVDYESDVLLVGDDPWEEFVGCVRCIRILSPTEVQQMSEEGMKLLNSAGINDLKTSVS
In the case of B1, the binding result is “binds”.
